Data reported in the supplement of paper PMC10849652.
The list shows a part of the results.

Sequences of proteins named here, by UniProt entry; tags and fusion partners are left off. A change or cut given only in a name is not applied to a line headed by its entry.
UniProt Q86XP3: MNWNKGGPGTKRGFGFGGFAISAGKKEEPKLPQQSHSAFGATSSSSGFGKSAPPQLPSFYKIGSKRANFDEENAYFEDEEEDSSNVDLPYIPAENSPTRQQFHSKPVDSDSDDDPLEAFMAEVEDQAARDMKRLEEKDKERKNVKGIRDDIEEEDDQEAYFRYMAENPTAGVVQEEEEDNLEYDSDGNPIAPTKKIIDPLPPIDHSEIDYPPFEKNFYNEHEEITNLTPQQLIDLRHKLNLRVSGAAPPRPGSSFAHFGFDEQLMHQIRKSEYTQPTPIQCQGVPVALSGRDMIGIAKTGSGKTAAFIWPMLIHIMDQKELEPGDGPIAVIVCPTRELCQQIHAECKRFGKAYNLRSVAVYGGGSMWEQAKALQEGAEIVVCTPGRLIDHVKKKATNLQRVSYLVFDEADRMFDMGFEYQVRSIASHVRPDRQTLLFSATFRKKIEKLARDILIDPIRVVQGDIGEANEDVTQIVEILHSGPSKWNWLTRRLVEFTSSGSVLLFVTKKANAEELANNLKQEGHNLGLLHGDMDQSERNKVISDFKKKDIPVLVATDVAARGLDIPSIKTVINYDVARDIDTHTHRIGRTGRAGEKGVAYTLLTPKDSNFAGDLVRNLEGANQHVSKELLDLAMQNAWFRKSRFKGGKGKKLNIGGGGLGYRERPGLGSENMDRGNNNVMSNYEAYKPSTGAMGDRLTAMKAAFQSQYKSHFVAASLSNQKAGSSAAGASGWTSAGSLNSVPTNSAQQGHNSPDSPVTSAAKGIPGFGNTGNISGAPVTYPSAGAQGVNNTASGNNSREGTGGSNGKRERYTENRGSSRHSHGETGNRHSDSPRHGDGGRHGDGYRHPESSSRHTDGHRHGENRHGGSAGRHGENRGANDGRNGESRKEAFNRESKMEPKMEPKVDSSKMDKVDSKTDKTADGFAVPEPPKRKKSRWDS
UniProt Q9H773: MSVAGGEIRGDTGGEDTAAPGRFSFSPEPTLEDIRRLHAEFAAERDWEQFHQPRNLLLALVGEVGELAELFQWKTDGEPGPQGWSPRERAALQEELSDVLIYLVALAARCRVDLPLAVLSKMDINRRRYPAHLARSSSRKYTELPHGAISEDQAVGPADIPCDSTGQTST
UniProt Q8NA75: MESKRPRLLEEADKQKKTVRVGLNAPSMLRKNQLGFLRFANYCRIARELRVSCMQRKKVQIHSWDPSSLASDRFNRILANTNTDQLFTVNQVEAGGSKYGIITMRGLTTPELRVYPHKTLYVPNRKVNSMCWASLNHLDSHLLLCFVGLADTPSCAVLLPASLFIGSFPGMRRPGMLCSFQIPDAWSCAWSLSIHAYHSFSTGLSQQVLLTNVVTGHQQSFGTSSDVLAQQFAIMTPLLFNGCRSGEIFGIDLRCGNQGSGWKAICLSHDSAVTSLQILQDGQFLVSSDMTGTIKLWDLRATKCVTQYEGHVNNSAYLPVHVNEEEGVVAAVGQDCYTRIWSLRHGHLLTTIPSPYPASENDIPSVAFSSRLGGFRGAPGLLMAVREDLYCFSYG
UniProt Q13561, whole entry, looked up: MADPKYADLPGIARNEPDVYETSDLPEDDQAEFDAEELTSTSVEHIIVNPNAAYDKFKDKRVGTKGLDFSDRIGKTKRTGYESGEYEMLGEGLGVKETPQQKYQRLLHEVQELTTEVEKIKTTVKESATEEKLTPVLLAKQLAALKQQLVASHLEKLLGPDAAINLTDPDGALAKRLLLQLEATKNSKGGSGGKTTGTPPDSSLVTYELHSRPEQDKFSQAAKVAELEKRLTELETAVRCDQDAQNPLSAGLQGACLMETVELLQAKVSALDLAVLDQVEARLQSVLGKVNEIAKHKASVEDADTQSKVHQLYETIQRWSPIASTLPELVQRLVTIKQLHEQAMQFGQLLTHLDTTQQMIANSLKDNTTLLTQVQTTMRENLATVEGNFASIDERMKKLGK
UniProt Q9BTE1, whole entry, looked up: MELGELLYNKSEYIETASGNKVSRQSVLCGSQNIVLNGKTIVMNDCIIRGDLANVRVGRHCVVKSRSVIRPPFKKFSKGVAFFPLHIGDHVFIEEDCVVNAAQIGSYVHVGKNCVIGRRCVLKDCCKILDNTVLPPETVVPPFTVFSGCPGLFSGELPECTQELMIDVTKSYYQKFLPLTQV
UniProt Q9NR30: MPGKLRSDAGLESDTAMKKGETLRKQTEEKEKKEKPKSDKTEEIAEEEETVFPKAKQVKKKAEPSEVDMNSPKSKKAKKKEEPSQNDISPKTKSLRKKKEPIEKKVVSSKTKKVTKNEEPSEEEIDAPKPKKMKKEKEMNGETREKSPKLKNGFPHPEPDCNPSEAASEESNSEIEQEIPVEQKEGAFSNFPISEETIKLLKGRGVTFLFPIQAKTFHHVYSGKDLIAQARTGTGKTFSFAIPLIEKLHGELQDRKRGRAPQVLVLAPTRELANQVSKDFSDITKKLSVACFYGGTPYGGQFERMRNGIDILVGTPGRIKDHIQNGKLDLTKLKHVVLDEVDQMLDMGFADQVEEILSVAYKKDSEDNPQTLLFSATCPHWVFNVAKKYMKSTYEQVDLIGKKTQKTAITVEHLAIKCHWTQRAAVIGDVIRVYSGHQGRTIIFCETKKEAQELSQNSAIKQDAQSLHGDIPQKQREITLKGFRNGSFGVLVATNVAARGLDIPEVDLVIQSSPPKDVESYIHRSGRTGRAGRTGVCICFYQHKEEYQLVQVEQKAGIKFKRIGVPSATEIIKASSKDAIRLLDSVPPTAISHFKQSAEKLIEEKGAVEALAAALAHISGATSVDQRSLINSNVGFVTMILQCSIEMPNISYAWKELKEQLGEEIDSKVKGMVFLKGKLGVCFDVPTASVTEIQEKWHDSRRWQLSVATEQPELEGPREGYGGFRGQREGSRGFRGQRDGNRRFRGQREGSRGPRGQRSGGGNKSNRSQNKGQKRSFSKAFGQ
UniProt Q9UJU6: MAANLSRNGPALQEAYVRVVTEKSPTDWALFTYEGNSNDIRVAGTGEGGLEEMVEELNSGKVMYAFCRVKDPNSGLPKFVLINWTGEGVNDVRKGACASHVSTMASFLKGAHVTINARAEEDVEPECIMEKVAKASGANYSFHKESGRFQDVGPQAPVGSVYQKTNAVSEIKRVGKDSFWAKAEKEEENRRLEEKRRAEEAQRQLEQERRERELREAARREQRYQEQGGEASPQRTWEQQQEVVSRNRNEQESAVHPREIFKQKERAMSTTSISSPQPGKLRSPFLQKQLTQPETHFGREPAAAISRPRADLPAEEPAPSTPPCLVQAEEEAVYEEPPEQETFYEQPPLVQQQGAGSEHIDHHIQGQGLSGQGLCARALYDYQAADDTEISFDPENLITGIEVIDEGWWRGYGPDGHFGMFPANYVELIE
UniProt Q96HY6: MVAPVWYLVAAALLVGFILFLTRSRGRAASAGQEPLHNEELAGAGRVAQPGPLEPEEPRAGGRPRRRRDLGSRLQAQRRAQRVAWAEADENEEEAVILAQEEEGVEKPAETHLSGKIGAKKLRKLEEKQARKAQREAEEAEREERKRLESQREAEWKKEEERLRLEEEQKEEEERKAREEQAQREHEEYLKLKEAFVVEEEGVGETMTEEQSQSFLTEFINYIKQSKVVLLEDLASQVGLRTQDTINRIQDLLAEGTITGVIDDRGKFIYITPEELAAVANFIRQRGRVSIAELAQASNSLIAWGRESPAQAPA
UniProt Q9BTE7: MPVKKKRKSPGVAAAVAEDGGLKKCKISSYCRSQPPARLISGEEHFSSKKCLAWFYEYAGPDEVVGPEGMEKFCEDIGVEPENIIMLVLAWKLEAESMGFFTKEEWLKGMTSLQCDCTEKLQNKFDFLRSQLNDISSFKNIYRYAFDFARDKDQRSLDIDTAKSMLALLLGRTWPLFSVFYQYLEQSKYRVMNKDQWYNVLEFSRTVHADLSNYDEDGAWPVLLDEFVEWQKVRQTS
UniProt P98082: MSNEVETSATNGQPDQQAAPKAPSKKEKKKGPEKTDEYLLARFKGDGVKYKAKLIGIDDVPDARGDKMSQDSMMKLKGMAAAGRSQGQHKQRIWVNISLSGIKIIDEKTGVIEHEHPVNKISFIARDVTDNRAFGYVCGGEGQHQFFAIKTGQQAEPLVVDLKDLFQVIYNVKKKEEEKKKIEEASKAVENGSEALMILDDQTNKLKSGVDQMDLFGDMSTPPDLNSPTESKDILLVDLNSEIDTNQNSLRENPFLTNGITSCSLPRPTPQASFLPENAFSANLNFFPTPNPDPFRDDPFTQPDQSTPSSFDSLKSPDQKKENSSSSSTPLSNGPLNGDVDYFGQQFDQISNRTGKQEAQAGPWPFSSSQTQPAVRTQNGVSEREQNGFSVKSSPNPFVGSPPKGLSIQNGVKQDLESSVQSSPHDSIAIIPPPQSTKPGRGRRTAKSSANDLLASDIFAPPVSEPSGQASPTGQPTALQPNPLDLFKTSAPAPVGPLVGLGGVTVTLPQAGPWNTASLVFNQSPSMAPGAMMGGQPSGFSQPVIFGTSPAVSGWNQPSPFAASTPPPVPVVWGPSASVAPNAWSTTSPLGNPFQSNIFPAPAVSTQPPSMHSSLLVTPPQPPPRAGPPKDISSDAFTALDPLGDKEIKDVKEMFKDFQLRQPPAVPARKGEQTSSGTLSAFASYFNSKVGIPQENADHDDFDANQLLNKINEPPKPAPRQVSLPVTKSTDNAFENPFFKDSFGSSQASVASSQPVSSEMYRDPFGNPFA
UniProt Q92564: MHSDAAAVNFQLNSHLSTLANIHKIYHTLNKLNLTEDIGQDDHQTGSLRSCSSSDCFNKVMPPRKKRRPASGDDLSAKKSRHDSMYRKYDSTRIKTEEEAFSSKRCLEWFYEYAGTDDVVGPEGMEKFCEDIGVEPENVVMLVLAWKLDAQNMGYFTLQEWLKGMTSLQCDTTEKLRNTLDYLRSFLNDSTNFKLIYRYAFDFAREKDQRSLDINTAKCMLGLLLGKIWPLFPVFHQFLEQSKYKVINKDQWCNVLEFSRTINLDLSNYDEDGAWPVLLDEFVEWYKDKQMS
UniProt P11182, whole entry, looked up: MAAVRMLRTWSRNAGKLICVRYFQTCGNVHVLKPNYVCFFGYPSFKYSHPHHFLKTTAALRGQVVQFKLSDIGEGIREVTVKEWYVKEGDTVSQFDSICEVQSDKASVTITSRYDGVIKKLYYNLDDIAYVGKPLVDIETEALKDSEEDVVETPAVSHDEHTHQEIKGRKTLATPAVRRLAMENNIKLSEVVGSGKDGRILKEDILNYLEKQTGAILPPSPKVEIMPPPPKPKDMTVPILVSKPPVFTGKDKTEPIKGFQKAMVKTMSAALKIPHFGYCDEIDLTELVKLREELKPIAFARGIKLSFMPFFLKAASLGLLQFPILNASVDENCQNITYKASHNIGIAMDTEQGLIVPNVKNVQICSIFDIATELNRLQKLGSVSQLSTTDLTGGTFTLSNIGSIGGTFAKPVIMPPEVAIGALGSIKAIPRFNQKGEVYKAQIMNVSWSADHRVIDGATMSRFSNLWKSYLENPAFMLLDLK
UniProt Q96GQ7: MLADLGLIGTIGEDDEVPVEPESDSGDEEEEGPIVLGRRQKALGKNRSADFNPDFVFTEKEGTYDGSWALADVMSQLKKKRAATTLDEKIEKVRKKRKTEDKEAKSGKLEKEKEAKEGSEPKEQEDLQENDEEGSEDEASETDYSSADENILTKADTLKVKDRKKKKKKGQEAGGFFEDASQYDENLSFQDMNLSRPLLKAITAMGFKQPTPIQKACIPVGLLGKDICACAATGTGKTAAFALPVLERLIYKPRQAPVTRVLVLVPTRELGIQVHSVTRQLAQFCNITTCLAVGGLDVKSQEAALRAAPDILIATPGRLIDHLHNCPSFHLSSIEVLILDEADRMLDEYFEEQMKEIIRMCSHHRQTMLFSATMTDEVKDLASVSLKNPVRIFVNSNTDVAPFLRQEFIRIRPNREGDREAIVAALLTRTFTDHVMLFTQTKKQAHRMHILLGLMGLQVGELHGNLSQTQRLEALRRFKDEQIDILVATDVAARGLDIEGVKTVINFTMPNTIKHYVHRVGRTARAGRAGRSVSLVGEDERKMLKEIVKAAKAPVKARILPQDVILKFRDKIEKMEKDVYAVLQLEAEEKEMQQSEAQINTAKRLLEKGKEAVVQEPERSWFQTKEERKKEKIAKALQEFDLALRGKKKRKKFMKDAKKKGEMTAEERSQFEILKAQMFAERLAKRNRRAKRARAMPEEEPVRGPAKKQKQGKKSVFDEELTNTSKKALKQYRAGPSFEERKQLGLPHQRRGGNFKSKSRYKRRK

Experiments:
Test in all cases: log2 fold change, soluble protein after heating vs DMSO (PISA); higher = thermal stabilisation; K562 lysate, 10 uM; active = over 0.2 and 3.5 SD of the protein, either way, in both replicates (recomputed)
[1] = compound: CN1CC[C@H](c2c(O)cc(O)c3c(=O)cc(-c4ccccc4Cl)oc23)[C@H](O)C1 [alvocidib]
In short: (§1)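 Following dounce homogenisation of K562 pellets in PBS pH 7.4 with 1 mM MgCl2, crude extract at 1 mg/mL protein was incubated for 30 min with 10 μM compound. Aliquots were then heated for 3 min over 48°C-58°C and pooled, NP-40 was added to 0.5% at 4°C, and soluble protein was recovered as the supernatant at 21,000xg for 90 min. Channel-sum-equalised TMTpro 16plex LC-MS/MS quantified this protein. Each value, from duplicates, is a log-two fold change in thermal stability relative to solvent controls.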

[2] = compound: CN1CCc2c(c3ccccc3n2Cc2ccc(C(=O)NO)cc2)C1 [Tubastatin A]
In short: as §1

[3] = compound: CNC(=O)C1=CC=CC=C1NC2=NC(=NC=C2Cl)NC3=C(C=C(C=C3)N4CCOCC4)OC
In short: as §1

[4] = compound: CNC(=O)c1ccc(Nc2ncc(C(F)(F)F)c(NCc3nccnc3N(C)S(C)(=O)=O)n2)cc1 [defactinib]
In short: as §1

[5] = compound: CNc1nc(-c2ccc3c(N)n[nH]c3c2)cc(N2C[C@@H](C(=O)NC3CCCCC3)CC[C@H]2C)n1
In short: as §1

[6] = compound: COC(=O)N[C@@H](C)CNc1nccc(-c2cn(C(C)C)nc2-c2cc(Cl)cc(NS(C)(=O)=O)c2F)n1 [encorafenib]
In short: as §1

[7] = compound: COC(=O)[C@H](CCSC)NC(=O)C1=C(C=C(C=C1)NC[C@H](CS)N)C2=CC=CC=C2
In short: as §1

[8] = compound: COc1cc(Nc2ncc3c(n2)-c2ccc(Cl)cc2C(c2c(F)cccc2OC)=NC3)ccc1C(=O)O [alisertib]
In short: as §1

[9] = compound: COc1cc2nc(-c3cc(F)ccc3O)nc(N[C@@H]3CNC[C@H]3C(C)(C)O)c2cc1OC
In short: as §1

[10] = compound: COc1cc2ncnc(Nc3ccc(F)c(Cl)c3)c2cc1OCCCN1CCOCC1 [gefitinib]
In short: as §1

[11] = compound: CS(=O)(=O)CCNCc1ccc(-c2ccc3ncnc(Nc4ccc(OCc5cccc(F)c5)c(Cl)c4)c3c2)o1 [lapatinib]
In short: as §1

[12] = compound: CS(=O)(=O)N1CCN(Cc2cc3nc(-c4cccc5[nH]ncc45)nc(N4CCOCC4)c3s2)CC1 [pictilisib]
In short: as §1

[13] = compound: C[C@@H](Oc1cc(-c2cnn(C3CCNCC3)c2)cnc1N)c1c(Cl)ccc(F)c1Cl [crizotinib]
In short: as §1

[14] = compound: C[C@H](C1=CC=C(C=C1)C(=O)NC2=C3C=CNC3=NC=C2)N
In short: as §1

[15] = compound: C[C@H](Nc1ncnc2nc[nH]c12)c1cc2cccc(Cl)c2c(=O)n1-c1ccccc1 [duvelisib]
In short: as §1

[16] = compound: Cc1cc(Nc2cc(CN3CCOCC3)c3nc(C)c(Cc4ccc(Cl)cc4F)n3n2)n[nH]1 [gandotinib]
In short: as §1

[17] = compound: Cc1cc(Nc2cc(N3CCN(C)CC3)nc(Sc3ccc(NC(=O)C4CC4)cc3)n2)n[nH]1 [tozasertib]
In short: as §1

[18] = compound: Cc1ccc(-n2nc(C(C)(C)C)cc2NC(=O)Nc2ccc(OCCN3CCOCC3)c3ccccc23)cc1 [doramapimod]
In short: as §1

[19] = compound: Cc1ccc(NC(=O)c2ccc(CN3CC[C@H](N(C)C)C3)c(C(F)(F)F)c2)cc1Nc1nccc(-c2cncnc2)n1 [bafetinib]
In short: as §1

[20] = compound: Cc1cccc(CC(=O)N2CCc3c2ccc(-c2cn(C)c4ncnc(N)c24)c3F)n1
In short: as §1

Measured: log2 fold change

DDX42 (UniProt Q86XP3)
inactive: [1] 0.031 | [2] 0.001 | [3] 0.018 | [4] -0.021 | [5] 0.019 | [6] -0.005 | [7] 0.075 | [8] 0.019 | [9] 0.01 | [10] -0.04 | [11] 0.007 | [12] 0 | [13] -0.014 | [14] -0.006 | [15] -0.036 | [16] -0.041 | [17] 0.023 | [18] 0.036 | [19] -0.01 | [20] 0.005

DCTPP1 (UniProt Q9H773)
inactive: [1] 0.023 | [2] 0.082 | [3] 0.024 | [4] 0.016 | [5] 0.052 | [6] -0.025 | [7] -0.063 | [8] 0.04 | [9] 0.013 | [10] -0.036 | [11] 0.007 | [12] -0.088 | [13] 0.013 | [14] 0.036 | [15] 0.088 | [16] -0.04 | [17] 0.127 | [18] 0.048 | [19] -0.008 | [20] 0.025

DCAF4L2 (UniProt Q8NA75)
inactive: [1] 0.001 | [2] 0.206 | [3] -0.045 | [4] 0.096 | [5] 0.266 | [6] 0.001 | [7] 0.046 | [8] -0.051 | [9] 0.072 | [10] 0.006 | [11] 0.123 | [12] -0.103 | [13] -0.008 | [14] 0.054 | [15] 0.149 | [16] -0.026 | [17] -0.015 | [18] 0.021 | [19] -0.014 | [20] -0.011

DCTN2 (UniProt Q13561)
inactive: [1] -0.019 | [2] 0.011 | [3] -0.005 | [4] 0.135 | [5] 0.083 | [6] -0.033 | [7] -0.043 | [8] 0.019 | [9] 0.022 | [10] -0.06 | [11] 0.025 | [12] 0.031 | [13] -0.04 | [14] 0.113 | [15] -0.153 | [16] -0.029 | [17] -0.011 | [18] -0.068 | [19] 0.157 | [20] -0.013

Two records picked at random from the list so far, as already listed:
DCTN2 (UniProt Q13561)
inactive: [1] -0.019 | [2] 0.011 | [3] -0.005 | [4] 0.135 | [5] 0.083 | [6] -0.033 | [7] -0.043 | [8] 0.019 | [9] 0.022 | [10] -0.06 | [11] 0.025 | [12] 0.031 | [13] -0.04 | [14] 0.113 | [15] -0.153 | [16] -0.029 | [17] -0.011 | [18] -0.068 | [19] 0.157 | [20] -0.013

DDX42 (UniProt Q86XP3)
inactive: [1] 0.031 | [2] 0.001 | [3] 0.018 | [4] -0.021 | [5] 0.019 | [6] -0.005 | [7] 0.075 | [8] 0.019 | [9] 0.01 | [10] -0.04 | [11] 0.007 | [12] 0 | [13] -0.014 | [14] -0.006 | [15] -0.036 | [16] -0.041 | [17] 0.023 | [18] 0.036 | [19] -0.01 | [20] 0.005

More records:

DCTN5 (UniProt Q9BTE1)
inactive: [1] 0.01 | [2] 0.076 | [3] -0.064 | [4] -0.172 | [5] 0.089 | [6] -0.11 | [7] 0.032 | [8] -0.027 | [9] 0.035 | [10] -0.011 | [11] 0.042 | [12] 0.055 | [13] 0.076 | [14] -0.01 | [15] -0.016 | [16] 0.012 | [17] 0.104 | [18] -0.028 | [19] 0.205 | [20] -0.032

DARS (UniProt P14868)
inactive: [1] 0.012 | [2] -0.119 | [3] -0.012 | [4] 0.012 | [5] -0.061 | [6] 0.028 | [7] 0.049 | [8] 0.038 | [9] 0.003 | [10] -0.014 | [11] 0.002 | [12] 0 | [13] -0.033 | [14] -0.036 | [15] 0 | [16] -0.081 | [17] 0.011 | [18] 0.015 | [19] -0.011 | [20] 0.008

DDX21 (UniProt Q9NR30)
inactive: [1] 0.019 | [2] -0.055 | [3] -0.017 | [4] 0.016 | [5] 0.013 | [6] -0.001 | [7] -0.03 | [8] 0.014 | [9] 0.005 | [10] -0.03 | [11] -0.006 | [12] 0.002 | [13] -0.037 | [14] -0.007 | [15] 0.015 | [16] -0.087 | [17] 0.008 | [18] -0.042 | [19] -0.017 | [20] 0.054

DBNL isoform 3 (UniProt Q9UJU6)
inactive: [1] -0.017 | [2] 0.027 | [3] -0.019 | [4] 0.034 | [5] 0.023 | [6] -0.019 | [7] -0.021 | [8] -0.026 | [9] 0.018 | [10] 0.009 | [11] 0.01 | [12] 0.002 | [13] 0.053 | [14] -0.045 | [15] 0.011 | [16] 0.036 | [17] 0.007 | [18] -0.069 | [19] 0.034 | [20] 0.029

DDRGK1 (UniProt Q96HY6)
inactive: [1] 0.005 | [2] 0.076 | [3] -0.057 | [4] -0.011 | [5] 0.064 | [6] 0.026 | [7] 0.008 | [8] 0.009 | [9] 0.022 | [10] 0.006 | [11] -0.021 | [12] -0.07 | [13] -0.033 | [14] 0.042 | [15] -0.002 | [16] 0.001 | [17] -0.04 | [18] 0.013 | [19] -0.019 | [20] -0.03

DDX47 (UniProt Q9H0S4)
inactive: [1] 0 | [2] -0.023 | [3] 0.072 | [4] 0.046 | [5] 0.051 | [6] 0.014 | [7] 0.032 | [8] -0.005 | [9] -0.012 | [10] -0.015 | [11] -0.03 | [12] 0.001 | [13] -0.06 | [14] 0.011 | [15] -0.02 | [16] 0.006 | [17] 0.05 | [18] 0.048 | [19] -0.044 | [20] 0.14

DCUN1D5 (UniProt Q9BTE7)
inactive: [1] 0.04 | [2] -0.107 | [3] -0.019 | [4] 0.002 | [5] 0.027 | [6] 0.018 | [7] 0.138 | [8] 0.001 | [9] 0.073 | [10] -0.026 | [11] -0.096 | [12] 0.019 | [13] -0.076 | [14] -0.012 | [15] 0.058 | [16] -0.068 | [17] -0.062 | [18] 0.009 | [19] -0.113 | [20] 0.03

DAB2 (UniProt P98082)
inactive: [1] -0.008 | [2] -0.071 | [3] -0.014 | [4] 0.012 | [5] 0.023 | [6] 0.016 | [7] 0 | [8] 0.002 | [9] -0.014 | [10] -0.002 | [11] 0.009 | [12] -0.063 | [13] 0.003 | [14] -0.03 | [15] 0.01 | [16] -0.004 | [17] -0.019 | [18] -0.01 | [19] -0.054 | [20] -0.019

DCUN1D4 isoform 3 (UniProt Q92564)
inactive: [1] -0.276 | [2] 0.081 | [3] 0.003 | [4] 0.014 | [5] 0.035 | [6] 0.034 | [7] 0.131 | [8] 0.055 | [9] -0.043 | [10] -0.049 | [11] 0.072 | [12] 0.046 | [13] -0.02 | [14] 0.001 | [15] 0.02 | [16] -0.104 | [17] -0.009 | [18] 0.004 | [19] -0.003 | [20] -0.039

DBT (UniProt P11182)
inactive: [1] 0.015 | [2] 0.026 | [3] 0.029 | [4] 0.005 | [5] -0.049 | [6] 0.03 | [7] -0.064 | [8] -0.015 | [9] -0.012 | [10] -0.008 | [11] 0.006 | [12] -0.037 | [13] -0.022 | [14] -0.024 | [15] 0.022 | [16] 0.006 | [17] 0.033 | [18] -0.003 | [19] -0.037 | [20] -0.02

DDB1 (UniProt Q16531)
inactive: [1] 0.009 | [2] 0.01 | [3] -0.008 | [4] -0.009 | [5] -0.012 | [6] 0.006 | [7] -0.026 | [8] 0.014 | [9] 0.004 | [10] -0.006 | [11] -0.005 | [12] 0 | [13] 0.027 | [14] 0 | [15] 0.003 | [16] 0.007 | [17] 0 | [18] 0.024 | [19] 0.018 | [20] -0.034

DDX27 (UniProt Q96GQ7)
inactive: [1] -0.016 | [2] -0.005 | [3] -0.009 | [4] 0.01 | [5] 0.013 | [6] 0.018 | [7] 0.011 | [8] -0.014 | [9] -0.005 | [10] 0.021 | [11] -0.004 | [12] -0.021 | [13] -0.049 | [14] 0.015 | [15] -0.011 | [16] -0.015 | [17] 0 | [18] -0.001 | [19] -0.006 | [20] 0.041
